{"source": "PubChem BioAssay AID686943 – Drosophila RNAi Screening Center, 2013", "test": "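Search across the genome for regulators of signalling from receptor tyrosine kinase to ERK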 (primary screen)", "cells": "Drosophila S2R+ haemocyte-like cells expressing YFP-tagged ERK (Rolled)", "reagents": "long dsRNA against Drosophila genes", "conditions": "insulin stimulation versus unstimulated cells; dose and duration not given", "detection": "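Per-plate z-scores of phospho-ERK immunostaining normalised to YFP-tagged ERK, measured with and without insulin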", "scale": "replicate 1, z-score of dpERK with insulin and replicate 2, z-score of dpERK with insulin: higher = more active ERK per ERK-YFP after insulin", "note": "The screen tested about 23,000 reagents; this is an unselected part of those that have a named target and a result. 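Extra replicates exist only for a retested subset of genes; insulin dose and duration not given; both raised and lowered dpERK matter.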 Reagents against one gene are numbered here. A plus sign joins genes that one reagent is predicted to hit. Further read-outs or replicates are left out here. Not stated in the record: the amount of reagent, the time to read-out."}
{"Target gene": "CG3117", "reagent": 1, "replicate 1, z-score of dpERK with insulin": 0.72, "replicate 2, z-score of dpERK with insulin": -0.31}
{"Target gene": "Rbbp5", "reagent": 1, "replicate 1, z-score of dpERK with insulin": 0.03, "replicate 2, z-score of dpERK with insulin": -0.41}
{"Target gene": "Arp10", "reagent": 1, "replicate 1, z-score of dpERK with insulin": 0.16, "replicate 2, z-score of dpERK with insulin": 1.32}
{"Target gene": "Rep", "reagent": 1, "replicate 1, z-score of dpERK with insulin": -0.9, "replicate 2, z-score of dpERK with insulin": -0.94}
{"Target gene": "EloC", "reagent": 1, "replicate 1, z-score of dpERK with insulin": 0.06, "replicate 2, z-score of dpERK with insulin": 0.87}
{"Target gene": "Mco3", "reagent": 1, "replicate 1, z-score of dpERK with insulin": 1.22, "replicate 2, z-score of dpERK with insulin": -0.01}
{"Target gene": "Obp50e", "reagent": 1, "replicate 1, z-score of dpERK with insulin": 0.25, "replicate 2, z-score of dpERK with insulin": 0.77}
{"Target gene": "CG8028", "reagent": 1, "replicate 1, z-score of dpERK with insulin": 0.84, "replicate 2, z-score of dpERK with insulin": 0.31}
{"Target gene": "CG1428", "reagent": 1, "replicate 1, z-score of dpERK with insulin": -0.33, "replicate 2, z-score of dpERK with insulin": 0.64}
{"Target gene": "CG6769", "reagent": 1, "replicate 1, z-score of dpERK with insulin": 0.94, "replicate 2, z-score of dpERK with insulin": -0.32}
{"Target gene": "loqs", "reagent": 1, "replicate 1, z-score of dpERK with insulin": -0.16, "replicate 2, z-score of dpERK with insulin": 0.14}
{"Target gene": "RhoGAP15B", "reagent": 1, "replicate 1, z-score of dpERK with insulin": -0.28, "replicate 2, z-score of dpERK with insulin": -0.09}
{"Target gene": "RhoGAP15B", "reagent": 2, "replicate 1, z-score of dpERK with insulin": 0.23, "replicate 2, z-score of dpERK with insulin": -0.09}
{"Target gene": "CG1142", "reagent": 1, "replicate 1, z-score of dpERK with insulin": 1.31, "replicate 2, z-score of dpERK with insulin": 0.55}
{"Target gene": "CG10907", "reagent": 1, "replicate 1, z-score of dpERK with insulin": 0.26, "replicate 2, z-score of dpERK with insulin": -0.56}
{"Target gene": "Fen1", "reagent": 1, "replicate 1, z-score of dpERK with insulin": -0.2, "replicate 2, z-score of dpERK with insulin": 0.62}
{"Target gene": "CAH1 + Adat1", "reagent": 1, "replicate 1, z-score of dpERK with insulin": -0.19, "replicate 2, z-score of dpERK with insulin": -0.51}
{"Target gene": "Or33b", "reagent": 1, "replicate 1, z-score of dpERK with insulin": -0.12, "replicate 2, z-score of dpERK with insulin": -0.07}
{"Target gene": "Glt", "reagent": 1, "replicate 1, z-score of dpERK with insulin": 0.58, "replicate 2, z-score of dpERK with insulin": 0.09}
{"Target gene": "CG6295", "reagent": 1, "replicate 1, z-score of dpERK with insulin": 0.55, "replicate 2, z-score of dpERK with insulin": 0}
{"Target gene": "Rassf", "reagent": 1, "replicate 1, z-score of dpERK with insulin": -0.48, "replicate 2, z-score of dpERK with insulin": -0.8}
{"Target gene": "E(z)", "reagent": 1, "replicate 1, z-score of dpERK with insulin": -0.53, "replicate 2, z-score of dpERK with insulin": -0.12}
{"Target gene": "TAF1C-like", "reagent": 1, "replicate 1, z-score of dpERK with insulin": 0.91, "replicate 2, z-score of dpERK with insulin": -0.44}
{"Target gene": "CG7130", "reagent": 1, "replicate 1, z-score of dpERK with insulin": 0.65, "replicate 2, z-score of dpERK with insulin": 0.35}
{"Target gene": "lncRNA:CR32660", "reagent": 1, "replicate 1, z-score of dpERK with insulin": 0.67, "replicate 2, z-score of dpERK with insulin": 0.43}
{"Target gene": "Shaw", "reagent": 1, "replicate 1, z-score of dpERK with insulin": 0.63, "replicate 2, z-score of dpERK with insulin": 0.46}
{"Target gene": "Shaw", "reagent": 2, "replicate 1, z-score of dpERK with insulin": 0.38, "replicate 2, z-score of dpERK with insulin": 0.67}
{"Target gene": "Shaw", "reagent": 3, "replicate 1, z-score of dpERK with insulin": -0.46, "replicate 2, z-score of dpERK with insulin": 0.25}
{"Target gene": "RhoGAP5A", "reagent": 1, "replicate 1, z-score of dpERK with insulin": 0.7, "replicate 2, z-score of dpERK with insulin": 0.47}
{"Target gene": "CG18628", "reagent": 1, "replicate 1, z-score of dpERK with insulin": 0.47, "replicate 2, z-score of dpERK with insulin": -0.43}
{"Target gene": "Nse4", "reagent": 1, "replicate 1, z-score of dpERK with insulin": -0.28, "replicate 2, z-score of dpERK with insulin": 0.86}
